Experimental data from PMC8501984.

By UniProt entry, the sequences of proteins in these tests, tags left out. Where a name states a change or a piece, a line headed by the entry shows the natural chain unless it says otherwise.
UniProt P33911: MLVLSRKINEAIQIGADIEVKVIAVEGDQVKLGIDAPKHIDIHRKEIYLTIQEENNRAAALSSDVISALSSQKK

Target: CsrA (UniProt P33911)
Test: EMSA
Conditions: 0.15 fmol labelled RNA, increasing CsrA; RNA-RNA EMSAs in the paper: TMN buffer, 37 C, 30 min, 6% native PAA gel; recombinant protein; label: internal 32P-[alpha-UTP]; probe letters rebuilt from the primers and the genome; part of a longer molecule

Sequence: AGGUAAAAGUCAAUCUGUAUAUGUCGAAACACGAUGAUCAUGCAAAGGAGGGAUUCUGUGGAACAGGAUACGCAGCAUGUUAAACCACUUCAAACAAAAACCGAUAUUCAUGCAGUCUUGGCCUCUAAUGGACGCAUCAUUUAUAUAUCUGCCAACUCCAAACUGCAUUUGGGCUAUCUCCAAGGAGAGAUGAUCGGAUCAUUCCUCAAAACGUUUCUGCAUGAGGAAGACCA [kinA233 mRNA (5' 233 nt)]
- binding result: binds

The exact form of at least one protein or probe is not confirmed.
